The other results are listed elsewhere or left out.
Tests used:
Assay in all cases: log2 fold change, soluble protein after heating vs DMSO (PISA); higher = thermal stabilisation; K562 lysate, 10 uM; active = over 0.2 and 3.5 SD of the protein, either way, in both replicates (recomputed)
[1] = compound: C#Cc1cccc(Nc2ncnc3cc(OCCOC)c(OCCOC)cc23)c1 [erlotinib]
Procedure, shortened: (§1)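 Thermal stability, expressed as log-two fold change relative to solvent controls, is given from duplicates. Crude K562 extract in PBS pH 7.4 with 1 mM MgCl2, at 1 mg/mL protein, was treated with 10 μM compound for 30 min and heated in aliquots for 3 min across 48°C-58°C. After pooling, adjustment to 0.5% NP-40 at 4°C and centrifugation at 21,000xg for 90 min, supernatant protein was measured by TMTpro 16plex LC-MS/MS with channel sums equalised.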

Sequences of proteins named here, by UniProt entry; tags and fusion partners are left off. A change or cut given only in a name is not applied to a line headed by its entry.
UniProt O60610, whole entry, looked up: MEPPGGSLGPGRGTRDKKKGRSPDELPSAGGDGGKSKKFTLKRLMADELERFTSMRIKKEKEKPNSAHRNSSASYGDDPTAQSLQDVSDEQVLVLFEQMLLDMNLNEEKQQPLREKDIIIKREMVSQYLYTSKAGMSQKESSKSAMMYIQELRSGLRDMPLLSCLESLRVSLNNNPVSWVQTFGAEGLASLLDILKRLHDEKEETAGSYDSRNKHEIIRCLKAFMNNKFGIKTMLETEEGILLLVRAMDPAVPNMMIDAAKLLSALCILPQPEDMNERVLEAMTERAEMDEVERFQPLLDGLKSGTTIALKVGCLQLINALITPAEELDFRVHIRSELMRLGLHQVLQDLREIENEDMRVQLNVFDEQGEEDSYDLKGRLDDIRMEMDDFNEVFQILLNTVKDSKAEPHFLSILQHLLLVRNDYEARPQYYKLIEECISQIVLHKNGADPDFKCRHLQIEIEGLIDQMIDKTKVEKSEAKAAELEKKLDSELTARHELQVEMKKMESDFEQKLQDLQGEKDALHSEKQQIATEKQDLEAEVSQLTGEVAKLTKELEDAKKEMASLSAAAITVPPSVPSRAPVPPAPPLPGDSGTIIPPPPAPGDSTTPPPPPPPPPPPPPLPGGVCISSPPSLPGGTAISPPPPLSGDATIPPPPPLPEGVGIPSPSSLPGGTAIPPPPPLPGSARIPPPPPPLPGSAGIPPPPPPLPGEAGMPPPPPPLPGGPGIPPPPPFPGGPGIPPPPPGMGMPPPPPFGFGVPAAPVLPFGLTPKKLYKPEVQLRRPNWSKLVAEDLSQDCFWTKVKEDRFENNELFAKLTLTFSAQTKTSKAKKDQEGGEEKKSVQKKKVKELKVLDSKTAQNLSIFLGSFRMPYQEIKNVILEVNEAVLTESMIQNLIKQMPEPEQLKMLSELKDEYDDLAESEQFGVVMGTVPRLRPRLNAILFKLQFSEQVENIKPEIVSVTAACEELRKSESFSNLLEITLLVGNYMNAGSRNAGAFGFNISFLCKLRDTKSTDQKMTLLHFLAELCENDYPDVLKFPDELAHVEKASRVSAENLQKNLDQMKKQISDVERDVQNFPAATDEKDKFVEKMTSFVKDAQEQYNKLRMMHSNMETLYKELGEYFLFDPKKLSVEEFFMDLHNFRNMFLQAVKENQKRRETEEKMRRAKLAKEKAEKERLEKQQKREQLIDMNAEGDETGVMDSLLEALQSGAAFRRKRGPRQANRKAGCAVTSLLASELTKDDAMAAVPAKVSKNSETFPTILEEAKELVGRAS
UniProt Q8TF46, whole entry, looked up: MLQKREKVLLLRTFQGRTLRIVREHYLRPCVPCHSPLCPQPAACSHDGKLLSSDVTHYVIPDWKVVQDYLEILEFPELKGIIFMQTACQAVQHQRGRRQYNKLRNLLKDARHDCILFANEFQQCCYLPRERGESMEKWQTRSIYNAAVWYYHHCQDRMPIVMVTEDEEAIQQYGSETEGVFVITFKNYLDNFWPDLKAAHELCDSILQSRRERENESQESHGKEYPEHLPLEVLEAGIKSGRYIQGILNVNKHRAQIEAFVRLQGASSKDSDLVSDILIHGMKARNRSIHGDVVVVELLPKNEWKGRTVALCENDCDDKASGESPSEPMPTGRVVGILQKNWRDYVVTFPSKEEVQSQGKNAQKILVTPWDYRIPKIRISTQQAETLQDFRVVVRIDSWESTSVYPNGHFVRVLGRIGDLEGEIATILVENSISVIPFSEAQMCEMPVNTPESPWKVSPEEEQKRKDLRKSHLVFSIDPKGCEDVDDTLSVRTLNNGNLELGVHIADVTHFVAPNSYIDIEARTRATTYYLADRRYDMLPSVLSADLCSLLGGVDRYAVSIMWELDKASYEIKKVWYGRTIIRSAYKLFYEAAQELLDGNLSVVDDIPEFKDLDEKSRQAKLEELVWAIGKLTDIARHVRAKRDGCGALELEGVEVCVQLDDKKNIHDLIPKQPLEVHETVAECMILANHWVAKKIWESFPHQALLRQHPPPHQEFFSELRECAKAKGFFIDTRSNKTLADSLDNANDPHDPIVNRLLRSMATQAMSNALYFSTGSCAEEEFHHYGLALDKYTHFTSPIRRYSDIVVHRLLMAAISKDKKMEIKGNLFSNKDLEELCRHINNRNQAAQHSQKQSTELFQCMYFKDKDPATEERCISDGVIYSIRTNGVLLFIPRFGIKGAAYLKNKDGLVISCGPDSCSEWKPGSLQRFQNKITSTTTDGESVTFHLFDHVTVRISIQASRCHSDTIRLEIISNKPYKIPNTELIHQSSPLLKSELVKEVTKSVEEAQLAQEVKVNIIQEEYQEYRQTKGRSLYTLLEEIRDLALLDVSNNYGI
UniProt O75190: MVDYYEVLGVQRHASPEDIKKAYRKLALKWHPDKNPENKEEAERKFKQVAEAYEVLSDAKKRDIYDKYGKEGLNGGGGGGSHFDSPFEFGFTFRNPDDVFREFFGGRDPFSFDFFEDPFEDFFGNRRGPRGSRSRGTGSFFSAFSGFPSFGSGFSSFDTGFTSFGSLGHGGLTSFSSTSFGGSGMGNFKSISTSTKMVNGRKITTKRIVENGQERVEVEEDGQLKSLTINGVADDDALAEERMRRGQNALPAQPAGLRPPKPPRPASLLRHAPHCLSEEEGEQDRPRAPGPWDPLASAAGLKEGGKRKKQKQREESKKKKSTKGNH
UniProt Q96KC8: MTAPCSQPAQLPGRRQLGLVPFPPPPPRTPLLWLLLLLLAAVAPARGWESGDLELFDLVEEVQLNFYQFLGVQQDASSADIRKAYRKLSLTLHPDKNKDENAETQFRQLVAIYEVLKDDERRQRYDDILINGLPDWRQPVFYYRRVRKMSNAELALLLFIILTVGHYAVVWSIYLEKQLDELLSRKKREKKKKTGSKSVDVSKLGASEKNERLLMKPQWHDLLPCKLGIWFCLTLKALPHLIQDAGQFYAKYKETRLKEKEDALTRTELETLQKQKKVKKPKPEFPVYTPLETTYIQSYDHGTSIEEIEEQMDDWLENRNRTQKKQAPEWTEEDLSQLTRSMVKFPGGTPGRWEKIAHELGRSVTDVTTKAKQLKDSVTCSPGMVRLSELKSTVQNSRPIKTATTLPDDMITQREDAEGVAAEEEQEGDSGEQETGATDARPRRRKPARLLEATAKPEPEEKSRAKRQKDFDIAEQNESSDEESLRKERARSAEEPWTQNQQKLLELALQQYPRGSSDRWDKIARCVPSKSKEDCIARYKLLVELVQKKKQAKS
UniProt Q08211, whole entry, looked up: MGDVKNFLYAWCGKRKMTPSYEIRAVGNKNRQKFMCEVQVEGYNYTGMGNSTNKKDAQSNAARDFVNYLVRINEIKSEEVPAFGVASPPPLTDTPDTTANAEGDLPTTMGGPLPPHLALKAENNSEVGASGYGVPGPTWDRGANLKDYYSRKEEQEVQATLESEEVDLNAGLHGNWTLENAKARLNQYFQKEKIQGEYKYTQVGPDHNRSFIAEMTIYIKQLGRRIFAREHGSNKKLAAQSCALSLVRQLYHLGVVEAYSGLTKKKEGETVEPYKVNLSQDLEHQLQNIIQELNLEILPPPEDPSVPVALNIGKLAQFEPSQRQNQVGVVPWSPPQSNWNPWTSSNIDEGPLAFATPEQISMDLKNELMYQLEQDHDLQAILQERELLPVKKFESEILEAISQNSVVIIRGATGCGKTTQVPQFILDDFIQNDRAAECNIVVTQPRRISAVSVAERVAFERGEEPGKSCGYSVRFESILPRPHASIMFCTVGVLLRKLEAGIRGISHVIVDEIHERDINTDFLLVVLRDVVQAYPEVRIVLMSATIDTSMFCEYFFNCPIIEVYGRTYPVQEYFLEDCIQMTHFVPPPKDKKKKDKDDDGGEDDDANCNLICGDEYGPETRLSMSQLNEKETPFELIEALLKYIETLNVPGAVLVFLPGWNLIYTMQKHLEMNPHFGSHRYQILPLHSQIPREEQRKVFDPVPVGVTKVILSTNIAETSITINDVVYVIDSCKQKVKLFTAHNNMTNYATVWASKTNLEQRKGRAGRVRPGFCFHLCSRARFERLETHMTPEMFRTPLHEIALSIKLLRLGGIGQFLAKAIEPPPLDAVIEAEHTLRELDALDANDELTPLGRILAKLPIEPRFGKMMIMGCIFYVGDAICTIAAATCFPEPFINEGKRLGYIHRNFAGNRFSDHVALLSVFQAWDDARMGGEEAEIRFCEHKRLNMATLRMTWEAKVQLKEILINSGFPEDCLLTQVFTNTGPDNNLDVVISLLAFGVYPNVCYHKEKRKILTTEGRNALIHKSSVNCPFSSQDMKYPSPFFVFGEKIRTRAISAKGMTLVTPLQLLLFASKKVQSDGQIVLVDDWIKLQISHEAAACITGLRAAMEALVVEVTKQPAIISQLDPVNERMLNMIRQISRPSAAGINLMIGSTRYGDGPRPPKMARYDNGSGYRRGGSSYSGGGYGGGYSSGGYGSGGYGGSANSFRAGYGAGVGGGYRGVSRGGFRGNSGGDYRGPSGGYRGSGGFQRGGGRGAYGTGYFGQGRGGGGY
UniProt Q8NF50: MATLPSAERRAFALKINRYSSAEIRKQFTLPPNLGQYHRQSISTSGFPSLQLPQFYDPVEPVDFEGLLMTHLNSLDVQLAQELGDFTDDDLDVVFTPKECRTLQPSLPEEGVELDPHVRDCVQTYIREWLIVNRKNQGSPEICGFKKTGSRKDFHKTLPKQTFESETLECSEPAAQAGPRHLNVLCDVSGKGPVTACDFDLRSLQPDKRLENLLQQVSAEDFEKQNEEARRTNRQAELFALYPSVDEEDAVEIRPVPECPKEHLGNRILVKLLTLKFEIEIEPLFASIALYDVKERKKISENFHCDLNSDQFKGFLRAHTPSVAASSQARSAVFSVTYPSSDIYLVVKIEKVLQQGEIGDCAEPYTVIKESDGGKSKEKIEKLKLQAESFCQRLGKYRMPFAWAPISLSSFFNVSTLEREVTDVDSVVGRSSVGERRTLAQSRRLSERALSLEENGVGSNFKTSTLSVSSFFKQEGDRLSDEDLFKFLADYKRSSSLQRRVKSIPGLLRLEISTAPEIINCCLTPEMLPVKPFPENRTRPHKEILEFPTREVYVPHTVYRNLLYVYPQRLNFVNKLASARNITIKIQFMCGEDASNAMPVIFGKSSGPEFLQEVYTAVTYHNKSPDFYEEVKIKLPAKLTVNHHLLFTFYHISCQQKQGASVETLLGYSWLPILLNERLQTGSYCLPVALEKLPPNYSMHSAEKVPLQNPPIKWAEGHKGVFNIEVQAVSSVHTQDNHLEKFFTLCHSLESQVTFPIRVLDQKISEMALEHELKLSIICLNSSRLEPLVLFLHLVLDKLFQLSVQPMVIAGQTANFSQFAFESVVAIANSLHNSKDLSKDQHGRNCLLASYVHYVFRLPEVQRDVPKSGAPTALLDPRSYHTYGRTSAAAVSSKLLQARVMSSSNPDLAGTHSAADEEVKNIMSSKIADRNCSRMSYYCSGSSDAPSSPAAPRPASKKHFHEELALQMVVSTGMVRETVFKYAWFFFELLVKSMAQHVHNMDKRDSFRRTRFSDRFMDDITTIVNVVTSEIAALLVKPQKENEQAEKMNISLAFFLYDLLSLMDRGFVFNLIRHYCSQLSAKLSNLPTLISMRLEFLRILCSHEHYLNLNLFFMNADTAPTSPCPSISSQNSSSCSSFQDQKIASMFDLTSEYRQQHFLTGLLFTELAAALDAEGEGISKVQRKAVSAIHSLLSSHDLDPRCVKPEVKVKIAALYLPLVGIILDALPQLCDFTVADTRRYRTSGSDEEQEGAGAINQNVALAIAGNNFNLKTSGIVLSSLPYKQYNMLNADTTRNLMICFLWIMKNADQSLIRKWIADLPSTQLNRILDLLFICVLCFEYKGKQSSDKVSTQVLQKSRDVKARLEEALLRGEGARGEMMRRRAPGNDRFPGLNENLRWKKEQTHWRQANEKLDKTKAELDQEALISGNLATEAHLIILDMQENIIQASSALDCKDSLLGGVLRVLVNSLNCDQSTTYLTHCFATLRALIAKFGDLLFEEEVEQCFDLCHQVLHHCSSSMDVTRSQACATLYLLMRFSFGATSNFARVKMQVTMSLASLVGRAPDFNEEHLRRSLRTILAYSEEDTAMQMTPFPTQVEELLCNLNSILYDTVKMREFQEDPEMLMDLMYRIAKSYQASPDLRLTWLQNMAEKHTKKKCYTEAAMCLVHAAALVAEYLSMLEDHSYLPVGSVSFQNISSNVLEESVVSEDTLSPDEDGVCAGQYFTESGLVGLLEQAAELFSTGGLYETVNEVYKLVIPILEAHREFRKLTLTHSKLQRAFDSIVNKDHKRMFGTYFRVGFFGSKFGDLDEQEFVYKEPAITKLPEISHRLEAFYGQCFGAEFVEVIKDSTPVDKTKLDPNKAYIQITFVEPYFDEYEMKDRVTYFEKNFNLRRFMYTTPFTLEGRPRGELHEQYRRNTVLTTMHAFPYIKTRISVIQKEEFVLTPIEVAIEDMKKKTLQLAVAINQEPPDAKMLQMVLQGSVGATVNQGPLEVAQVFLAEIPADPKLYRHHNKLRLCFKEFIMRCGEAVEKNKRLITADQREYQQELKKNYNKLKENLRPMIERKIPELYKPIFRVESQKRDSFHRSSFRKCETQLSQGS

[2] = compound: C/C(=N\NC(=O)C1=CC(=CC=C1)S(=O)(=O)N2CCOCC2)/C3=C(C=CC(=C3)Cl)O
Procedure, shortened: as §1

[3] = compound: C1=CC(=CC=C1C2=NC3=C(N2)C=C(C=C3)C(=O)N)OC4=CC=C(C=C4)Cl
Procedure, shortened: as §1

[4] = compound: C1=CC2=C(C=CC(=C2)/C=C\3/C(=O)NC(=NCC4=CC=CS4)S3)N=C1
Procedure, shortened: as §1

[5] = compound: C1=CC2=NC=CN=C2C=C1/C=C/3\C(=O)NC(=O)S3
Procedure, shortened: as §1

[6] = compound: C1=CC=C(C=C1)C2=NC(=C(N2)C3=CC=NC=C3)C4=CC(=C(C=C4)Cl)O
Procedure, shortened: as §1

[7] = compound: C1=CC=C2C(=C1)C3=NNC4=CC=CC(=C43)C2=O
Procedure, shortened: as §1

[8] = compound: C1CCN(C1)C(=O)NC2=CC=CC(=C2)NC3=NC=C(C(=N3)NCCC4=CN=CN4)Br
Procedure, shortened: as §1

[9] = compound: C1CN(CCC1(CC2=CC=C(C=C2)Cl)N)C3=NC=NC4=C3C=CN4
Procedure, shortened: as §1

[10] = compound: C1COCCN1CCN2C3=CC=CC=C3N=C2NC(=O)C4=CC(=CC=C4)[N+](=O)[O-] [IRAK-1-4 Inhibitor I]
Procedure, shortened: as §1

[11] = compound: C=CC(=O)N1CCC[C@@H](n2nc(-c3ccc(Oc4ccccc4)cc3)c3c(N)ncnc32)C1 [ibrutinib]
Procedure, shortened: as §1

[12] = compound: CC(=O)c1cnc2ccc(-c3cc(Cl)c(O)c(Cl)c3)nc2c1N[C@H]1CC[C@H](CN(C)C)CC1
Procedure, shortened: as §1

[13] = compound: CC(C)(C)Cn1c(N)nc2ccc(-c3[nH]c(C(C)(C)C)nc3-c3ccc(F)cc3)nc21 [ralimetinib]
Procedure, shortened: as §1

[14] = compound: CC(C)(O)CC(=O)NCCn1ccc2ncnc(Nc3ccc(Oc4cccc(C(F)(F)F)c4)c(Cl)c3)c21
Procedure, shortened: as §1

[15] = compound: CC(C)C1=C2N=C(C=C(N2N=C1)NCC3=CC=CC=C3)NCCCCCCN
Procedure, shortened: as §1

[16] = compound: CC1=C(C(CC(=O)N1)C2=CC=C(C=C2)C(F)(F)F)C(=O)NC3=C(C=C4C(=C3)C=NN4)F
Procedure, shortened: as §1

[17] = compound: CC1=C(C2=C(C=C1)C(=O)C3=CC=CC=C3N2CCCN)C
Procedure, shortened: as §1

[18] = compound: CC1=C(C=C(C=C1)NC(=O)C2=CC(=CC=C2)C(C)(C)C#N)NC3=CC4=C(C=C3)N=CN(C4=O)C
Procedure, shortened: as §1

[19] = compound: CC1=C(C=C(C=C1)NC(=O)C2=CC(=CC=C2)N(C)C)NC(=O)C3=CC=C(C=C3)O
Procedure, shortened: as §1

[20] = compound: CC1=CC=C(C=C1)SC2=C3C=C(SC3=CN=C2)C(=O)N
Procedure, shortened: as §1

Measured: log2 fold change

DNAJB14 (UniProt Q8TBM8)
inactive: [1] -0.04 | [2] -0.045 | [3] 0.055 | [4] -0.026 | [5] -0.013 | [6] -0.068 | [7] 0 | [8] 0.022 | [9] 0.089 | [10] 0.049 | [11] 0.053 | [12] -0.022 | [13] 0.042 | [14] -0.12 | [15] 0.012 | [16] 0.07 | [17] -0.043 | [18] 0.062 | [19] -0.012 | [20] -0.12

DIAPH1 (UniProt O60610)
inactive: [1] -0.004 | [2] -0.006 | [3] 0.002 | [4] 0.007 | [5] -0.002 | [6] -0.001 | [7] -0.006 | [8] -0.01 | [9] -0.001 | [10] -0.007 | [11] -0.028 | [12] -0.004 | [13] -0.006 | [14] 0.005 | [15] -0.01 | [16] -0.009 | [17] 0.003 | [18] -0.004 | [19] 0.001 | [20] 0.004

DNM1L isoform 2 (UniProt O00429)
inactive: [1] -0.152 | [2] 0.092 | [3] 0.061 | [4] 0.024 | [5] -0.074 | [6] 0.03 | [7] -0.084 | [8] -0.218 | [9] -0.038 | [10] 0.092 | [11] -0.104 | [12] 0.031 | [13] -0.07 | [14] -0.024 | [15] -0.065 | [16] 0.083 | [17] -0.098 | [18] -0.029 | [19] 0.075 | [20] -0.064

DIS3L (UniProt Q8TF46)
inactive: [1] -0.014 | [2] -0.049 | [3] -0.065 | [4] 0.052 | [5] 0.283 | [6] 0.002 | [7] -0.004 | [8] -0.015 | [9] 0.008 | [10] 0.041 | [11] -0.018 | [12] -0.048 | [13] 0.023 | [14] 0.054 | [15] -0.008 | [16] 0.023 | [17] -0.083 | [18] 0.066 | [19] 0.041 | [20] 0.044

DNAJB1 (UniProt P25685)
inactive: [1] 0.013 | [2] -0.004 | [3] -0.005 | [4] 0.004 | [5] 0.025 | [6] 0.028 | [7] 0.017 | [8] 0.021 | [9] 0.035 | [10] 0.007 | [11] -0.029 | [12] 0.006 | [13] 0.009 | [14] -0.009 | [15] 0.007 | [16] 0.003 | [17] 0.041 | [18] 0.027 | [19] 0.017 | [20] -0.016

DNPEP (UniProt Q9ULA0)
inactive: [1] -0.012 | [2] 0.101 | [3] 0.022 | [4] -0.012 | [5] 0.016 | [6] 0.013 | [7] -0.019 | [8] -0.009 | [9] 0.006 | [10] 0.034 | [11] -0.008 | [12] 0.004 | [13] -0.013 | [14] -0.022 | [15] 0.015 | [16] 0 | [17] -0.022 | [18] -0.02 | [19] -0.014 | [20] -0.011

DNAJB6 (UniProt O75190)
inactive: [1] -0.007 | [2] -0.012 | [3] -0.036 | [4] -0.014 | [5] 0.016 | [6] 0.02 | [7] 0.051 | [8] -0.029 | [9] 0.013 | [10] -0.034 | [11] -0.086 | [12] 0.019 | [13] 0.014 | [14] -0.069 | [15] -0.023 | [16] 0.061 | [17] -0.032 | [18] 0.021 | [19] 0.058 | [20] 0

DNAH8 (UniProt Q96JB1)
inactive: [1] -0.031 | [2] -0.044 | [3] 0.588 | [4] -0.001 | [5] -0.03 | [6] -0.025 | [7] -0.074 | [8] -0.032 | [9] 0.116 | [10] 0.068 | [11] 0.067 | [12] -0.117 | [13] -0.001 | [14] -0.207 | [15] 0.003 | [16] -0.111 | [17] -0.04 | [18] 0.012 | [19] 0.019 | [20] -0.32

DNAJC10 (UniProt Q8IXB1)
inactive: [1] -0.03 | [2] 0.022 | [3] -0.016 | [4] 0.05 | [5] -0.006 | [6] -0.01 | [7] 0.012 | [8] -0.028 | [9] 0.01 | [10] -0.033 | [11] 0.059 | [12] 0.012 | [13] 0.001 | [14] 0.001 | [15] -0.017 | [16] 0.044 | [17] 0.002 | [18] -0.007 | [19] 0.007 | [20] -0.003

DNAJA2 (UniProt O60884)
inactive: [1] 0.001 | [2] 0.012 | [3] -0.014 | [4] 0.008 | [5] -0.019 | [6] 0.013 | [7] 0.009 | [8] -0.03 | [9] -0.003 | [10] -0.015 | [11] -0.014 | [12] 0.005 | [13] 0.009 | [14] -0.006 | [15] 0.009 | [16] 0.022 | [17] -0.013 | [18] 0.068 | [19] 0.022 | [20] 0.012

DHCR24 (UniProt Q15392)
inactive: [1] -0.054 | [2] -0.009 | [3] 0.017 | [4] 0.047 | [5] -0.019 | [6] 0.021 | [7] 0.011 | [8] -0.043 | [9] -0.064 | [10] 0.038 | [11] -0.111 | [12] 0.033 | [13] -0.017 | [14] 0.071 | [15] -0.014 | [16] -0.012 | [17] -0.089 | [18] 0.202 | [19] -0.043 | [20] -0.076

DLGAP5 (UniProt Q15398)
inactive: [1] -0.015 | [2] 0.023 | [3] -0.006 | [4] -0.024 | [5] -0.02 | [6] 0.026 | [7] -0.021 | [8] -0.013 | [9] -0.013 | [10] -0.009 | [11] 0.004 | [12] 0.02 | [13] -0.018 | [14] 0.005 | [15] -0.036 | [16] -0.009 | [17] -0.007 | [18] -0.012 | [19] 0.016 | [20] -0.003

DNAJC1 (UniProt Q96KC8)
inactive: [1] -0.018 | [2] -0.011 | [3] -0.159 | [4] -0.053 | [5] 0.032 | [6] -0.044 | [7] -0.039 | [8] -0.011 | [9] 0.017 | [10] 0.013 | [11] -0.018 | [12] 0.018 | [13] -0.007 | [14] -0.048 | [15] -0.014 | [16] 0.019 | [17] 0.019 | [18] -0.009 | [19] 0.032 | [20] 0.011

DIP2A (UniProt Q14689)
inactive: [1] 0.058 | [2] 0.008 | [3] -0.001 | [4] -0.031 | [5] -0.038 | [6] -0.035 | [7] -0.027 | [8] 0.072 | [9] 0.005 | [10] 0.071 | [11] 0.005 | [12] -0.006 | [13] -0.003 | [14] -0.072 | [15] -0.06 | [16] 0.024 | [17] -0.06 | [18] -0.057 | [19] -0.005 | [20] 0.009

DHX9 (UniProt Q08211)
inactive: [1] 0.004 | [2] -0.034 | [3] -0.02 | [4] 0.007 | [5] 0.002 | [6] 0.018 | [7] -0.005 | [8] 0.009 | [9] 0.001 | [10] -0.006 | [11] -0.001 | [12] -0.017 | [13] 0.018 | [14] 0.006 | [15] 0.003 | [16] -0.004 | [17] -0.033 | [18] 0.009 | [19] 0.032 | [20] 0.017

DOCK8 (UniProt Q8NF50)
inactive: [1] -0.001 | [2] -0.073 | [3] -0.016 | [4] 0.018 | [5] 0.005 | [6] 0.017 | [7] -0.023 | [8] 0.04 | [9] -0.021 | [10] 0.014 | [11] -0.033 | [12] -0.012 | [13] 0.03 | [14] 0.047 | [15] 0.003 | [16] -0.005 | [17] 0.022 | [18] 0.004 | [19] 0.057 | [20] -0.011

Random excerpt: 2 entries already listed
DLGAP5 (UniProt Q15398)
inactive: [1] -0.015 | [2] 0.023 | [3] -0.006 | [4] -0.024 | [5] -0.02 | [6] 0.026 | [7] -0.021 | [8] -0.013 | [9] -0.013 | [10] -0.009 | [11] 0.004 | [12] 0.02 | [13] -0.018 | [14] 0.005 | [15] -0.036 | [16] -0.009 | [17] -0.007 | [18] -0.012 | [19] 0.016 | [20] -0.003

DIP2A (UniProt Q14689)
inactive: [1] 0.058 | [2] 0.008 | [3] -0.001 | [4] -0.031 | [5] -0.038 | [6] -0.035 | [7] -0.027 | [8] 0.072 | [9] 0.005 | [10] 0.071 | [11] 0.005 | [12] -0.006 | [13] -0.003 | [14] -0.072 | [15] -0.06 | [16] 0.024 | [17] -0.06 | [18] -0.057 | [19] -0.005 | [20] 0.009
